Assay results published in patent US11298388B2, “Psychoactive alkaloid extraction and composition with controlled dephosphorylation” (PSILO SCIENTIFIC LTD, priority 2020, dated 2022).
For some of these results: The name of at least one read-out is uncertain. At least one structure is not confirmed: it was looked up by name or label, or the drawing left a doubt.

Columns and labels:
[1] = pH stability of purified psilocybin / psilocin over time under aqueous conditions; assay type: physicochemical
[2] = cited from earlier work

SMILES: CN(C)CCc1c[nH]c2cccc(O)c12 [Psilocin, psilocin]
- Recovery (%) ([1]; pH 2, T = 0): 102.75%
- Recovery (%) ([1]; pH 2, T = 4 h): 77.06%
- Recovery (%) ([1]; pH 2, T = 16 h): 57.80%
- Recovery (%) ([1]; pH 3, T = 0): 90.83%
- Recovery (%) ([1]; pH 3, T = 4 h): 90.83%
- Recovery (%) ([1]; pH 3, T = 16 h): 72.02%
- Recovery (%) ([1]; pH 4, T = 0): 93.58%
- Recovery (%) ([1]; pH 4, T = 4 h): 99.08%
- Recovery (%) ([1]; pH 4, T = 16 h): 81.47%
- Recovery (%) ([1]; pH 5, T = 0): 84.40%
- Recovery (%) ([1]; pH 5, T = 4 h): 69.27%
- Recovery (%) ([1]; pH 5, T = 16 h): 59.45%
- Recovery (%) ([1]; pH 6, T = 0): 95.41%
- Recovery (%) ([1]; pH 6, T = 4 h): 74.22%
- Recovery (%) ([1]; pH 6, T = 16 h): 62.66%
- Recovery (%) ([1]; pH 7, T = 0): 96.33%
- Recovery (%) ([1]; pH 7, T = 4 h): 74.40%
- Recovery (%) ([1]; pH 7, T = 16 h): 48.72%
- Recovery (%) ([1]; pH 8, T = 0): 90.83%
- Recovery (%) ([1]; pH 8, T = 4 h): 74.40%
- Recovery (%) ([1]; pH 8, T = 16 h): 46.62%
- Recovery (%) ([1]; pH 9, T = 0): 78.07%
- Recovery (%) ([1]; pH 9, T = 4 h): 43.49%
- Recovery (%) ([1]; pH 9, T = 16 h): 0.00%
- Recovery (%) ([1]; pH 10, T = 0): 88.99%
- Recovery (%) ([1]; pH 10, T = 4 h): 42.39%
- Recovery (%) ([1]; pH 10, T = 16 h): 20.46%
- Recovery (%) ([1]; pH 11, T = 0): 86.24%
- Recovery (%) ([1]; pH 11, T = 4 h): 39.17%
- Recovery (%) ([1]; pH 11, T = 16 h): 0.00%
- Recovery (%) ([1]; pH 12, T = 0): 88.07%
- Recovery (%) ([1]; pH 12, T = 4 h): 22.29%
- Recovery (%) ([1]; pH 12, T = 16 h): 10.37%

SMILES: CN(C)CCc1c[nH]c2cccc(OP(=O)(O)O)c12 [Psilocybin, psilocybin]
- isoelectric point (pH) [2]: 4
- Recovery (%) ([1]; pH 1, T = 0): 98.43%
- Recovery (%) ([1]; pH 1, T = 4 h): 97.23%
- Recovery (%) ([1]; pH 1, T = 16 h): 98.32%
- Recovery (%) ([1]; pH 2, T = 0): 97.56%
- Recovery (%) ([1]; pH 2, T = 4 h): 95.72%
- Recovery (%) ([1]; pH 2, T = 16 h): 95.64%
- Recovery (%) ([1]; pH 3, T = 0): 90.46%
- Recovery (%) ([1]; pH 3, T = 4 h): 102.32%
- Recovery (%) ([1]; pH 3, T = 16 h): 102.08%
- Recovery (%) ([1]; pH 4, T = 0): 95.60%
- Recovery (%) ([1]; pH 4, T = 4 h): 102.69%
- Recovery (%) ([1]; pH 4, T = 16 h): 102.20%
- Recovery (%) ([1]; pH 5, T = 0): 94.01%
- Recovery (%) ([1]; pH 5, T = 4 h): 93.89%
- Recovery (%) ([1]; pH 5, T = 16 h): 93.23%
- Recovery (%) ([1]; pH 6, T = 0): 103.30%
- Recovery (%) ([1]; pH 6, T = 4 h): 102.30%
- Recovery (%) ([1]; pH 6, T = 16 h): 101.09%
- Recovery (%) ([1]; pH 7, T = 0): 95.72%
- Recovery (%) ([1]; pH 7, T = 4 h): 100.21%
- Recovery (%) ([1]; pH 7, T = 16 h): 98.90%
- Recovery (%) ([1]; pH 8, T = 0): 98.41%
- Recovery (%) ([1]; pH 8, T = 4 h): 98.44%
- Recovery (%) ([1]; pH 8, T = 16 h): 97.31%
- Recovery (%) ([1]; pH 9, T = 0): 97.92%
- Recovery (%) ([1]; pH 9, T = 4 h): 95.67%
- Recovery (%) ([1]; pH 9, T = 16 h): 95.46%
- Recovery (%) ([1]; pH 10, T = 0): 102.32%
- Recovery (%) ([1]; pH 10, T = 4 h): 103.19%
- Recovery (%) ([1]; pH 10, T = 16 h): 102.60%
- Recovery (%) ([1]; pH 11, T = 0): 105.36%
- Recovery (%) ([1]; pH 11, T = 4 h): 105.50%
- Recovery (%) ([1]; pH 11, T = 16 h): 104.66%
- Recovery (%) ([1]; pH 12, T = 0): 100.86%
- Recovery (%) ([1]; pH 12, T = 4 h): 100.24%
- Recovery (%) ([1]; pH 12, T = 16 h): 96.33%
